Among the data in paper PMC4976216 are binding values, retold here.

Sequences of proteins named here, by UniProt entry; tags and fusion partners are left off.
UniProt A0A8I3NZ88: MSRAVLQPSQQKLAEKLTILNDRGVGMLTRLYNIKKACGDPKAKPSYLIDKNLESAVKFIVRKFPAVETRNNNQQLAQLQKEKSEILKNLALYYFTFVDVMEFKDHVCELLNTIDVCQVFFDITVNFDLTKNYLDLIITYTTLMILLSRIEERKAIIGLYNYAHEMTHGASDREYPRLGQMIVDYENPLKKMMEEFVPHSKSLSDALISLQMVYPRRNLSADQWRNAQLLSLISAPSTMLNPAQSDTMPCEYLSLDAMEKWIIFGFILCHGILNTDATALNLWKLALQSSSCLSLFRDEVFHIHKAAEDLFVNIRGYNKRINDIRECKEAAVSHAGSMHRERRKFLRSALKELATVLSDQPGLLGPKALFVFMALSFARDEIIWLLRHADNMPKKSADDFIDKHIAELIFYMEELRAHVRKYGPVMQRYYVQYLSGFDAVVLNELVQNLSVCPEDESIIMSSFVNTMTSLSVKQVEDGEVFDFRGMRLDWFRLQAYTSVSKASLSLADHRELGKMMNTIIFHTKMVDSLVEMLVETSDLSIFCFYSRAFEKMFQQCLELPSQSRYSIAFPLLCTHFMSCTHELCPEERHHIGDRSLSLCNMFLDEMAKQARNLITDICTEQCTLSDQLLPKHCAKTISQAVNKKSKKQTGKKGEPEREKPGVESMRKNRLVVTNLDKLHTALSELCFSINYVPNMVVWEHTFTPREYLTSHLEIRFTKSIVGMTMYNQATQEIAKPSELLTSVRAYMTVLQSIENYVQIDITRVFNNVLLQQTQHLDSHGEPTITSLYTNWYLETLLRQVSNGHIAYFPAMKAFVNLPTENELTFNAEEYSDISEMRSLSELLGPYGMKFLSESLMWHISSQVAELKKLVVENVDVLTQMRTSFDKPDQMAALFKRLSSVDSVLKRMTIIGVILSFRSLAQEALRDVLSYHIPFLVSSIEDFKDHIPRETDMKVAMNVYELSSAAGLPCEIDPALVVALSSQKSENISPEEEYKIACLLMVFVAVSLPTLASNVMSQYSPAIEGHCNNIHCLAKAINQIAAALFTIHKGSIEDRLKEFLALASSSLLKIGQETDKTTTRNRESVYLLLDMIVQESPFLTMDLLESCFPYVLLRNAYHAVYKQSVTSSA

The target of the assay is T1, Cingulin (CGN), endogenous in MDCK cells (canine (endogenous in MDCK)) (UniProt A7YH32).
T1 sequence: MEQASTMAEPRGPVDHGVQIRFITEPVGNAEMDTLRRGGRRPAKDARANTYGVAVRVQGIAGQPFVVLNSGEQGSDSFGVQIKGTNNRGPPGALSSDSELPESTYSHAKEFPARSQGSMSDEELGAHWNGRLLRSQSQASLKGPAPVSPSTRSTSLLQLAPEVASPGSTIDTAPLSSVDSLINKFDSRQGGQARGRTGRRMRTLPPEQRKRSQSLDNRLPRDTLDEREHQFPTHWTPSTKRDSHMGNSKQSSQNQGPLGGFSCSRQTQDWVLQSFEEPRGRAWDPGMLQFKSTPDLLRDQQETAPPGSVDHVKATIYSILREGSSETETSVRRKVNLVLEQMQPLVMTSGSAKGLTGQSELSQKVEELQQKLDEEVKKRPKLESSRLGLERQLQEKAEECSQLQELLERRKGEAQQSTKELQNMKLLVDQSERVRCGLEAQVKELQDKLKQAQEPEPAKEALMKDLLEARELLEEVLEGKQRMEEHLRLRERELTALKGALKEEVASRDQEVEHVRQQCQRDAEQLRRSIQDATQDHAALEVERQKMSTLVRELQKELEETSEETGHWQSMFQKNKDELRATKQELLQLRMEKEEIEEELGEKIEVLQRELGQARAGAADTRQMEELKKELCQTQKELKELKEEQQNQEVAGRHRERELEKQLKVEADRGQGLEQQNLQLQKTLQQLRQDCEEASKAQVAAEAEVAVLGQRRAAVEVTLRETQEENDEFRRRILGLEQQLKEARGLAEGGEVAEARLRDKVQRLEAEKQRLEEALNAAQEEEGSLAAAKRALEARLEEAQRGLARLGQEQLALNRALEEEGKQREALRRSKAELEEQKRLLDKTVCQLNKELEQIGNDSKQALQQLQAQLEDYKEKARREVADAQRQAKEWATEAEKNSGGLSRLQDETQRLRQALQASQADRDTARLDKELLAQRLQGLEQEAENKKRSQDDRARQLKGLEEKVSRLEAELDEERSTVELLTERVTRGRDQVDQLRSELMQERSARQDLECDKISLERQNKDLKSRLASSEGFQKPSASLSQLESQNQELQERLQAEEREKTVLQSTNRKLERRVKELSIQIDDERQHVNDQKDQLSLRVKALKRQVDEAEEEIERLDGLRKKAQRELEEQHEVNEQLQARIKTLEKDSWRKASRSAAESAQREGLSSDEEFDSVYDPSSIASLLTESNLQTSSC
The experiment in a line: affinity purification with mass spectrometry; anti-CGN antibody on protein A-sepharose, lysates of MDCK cells synchronized at telophase; eluted with 0.1 M glycine pH 2.0; compared with an IgG control.

These are yes or no findings as the source states them, for the method shown. In cells and extracts the contact can be indirect. A yes stands for co-enrichment or nearness to the bait. Other partners may have been found.

Regarding “Nap1, endogenous in MDCK cells (from UniProt A0A8I3NZ88 1-1128)”, the binding entry is on record as “binds”.
